This passage reports binding results from PMC6570650.

Chains of the proteins cited; added tags and fusions are not shown.
UniProt P14713: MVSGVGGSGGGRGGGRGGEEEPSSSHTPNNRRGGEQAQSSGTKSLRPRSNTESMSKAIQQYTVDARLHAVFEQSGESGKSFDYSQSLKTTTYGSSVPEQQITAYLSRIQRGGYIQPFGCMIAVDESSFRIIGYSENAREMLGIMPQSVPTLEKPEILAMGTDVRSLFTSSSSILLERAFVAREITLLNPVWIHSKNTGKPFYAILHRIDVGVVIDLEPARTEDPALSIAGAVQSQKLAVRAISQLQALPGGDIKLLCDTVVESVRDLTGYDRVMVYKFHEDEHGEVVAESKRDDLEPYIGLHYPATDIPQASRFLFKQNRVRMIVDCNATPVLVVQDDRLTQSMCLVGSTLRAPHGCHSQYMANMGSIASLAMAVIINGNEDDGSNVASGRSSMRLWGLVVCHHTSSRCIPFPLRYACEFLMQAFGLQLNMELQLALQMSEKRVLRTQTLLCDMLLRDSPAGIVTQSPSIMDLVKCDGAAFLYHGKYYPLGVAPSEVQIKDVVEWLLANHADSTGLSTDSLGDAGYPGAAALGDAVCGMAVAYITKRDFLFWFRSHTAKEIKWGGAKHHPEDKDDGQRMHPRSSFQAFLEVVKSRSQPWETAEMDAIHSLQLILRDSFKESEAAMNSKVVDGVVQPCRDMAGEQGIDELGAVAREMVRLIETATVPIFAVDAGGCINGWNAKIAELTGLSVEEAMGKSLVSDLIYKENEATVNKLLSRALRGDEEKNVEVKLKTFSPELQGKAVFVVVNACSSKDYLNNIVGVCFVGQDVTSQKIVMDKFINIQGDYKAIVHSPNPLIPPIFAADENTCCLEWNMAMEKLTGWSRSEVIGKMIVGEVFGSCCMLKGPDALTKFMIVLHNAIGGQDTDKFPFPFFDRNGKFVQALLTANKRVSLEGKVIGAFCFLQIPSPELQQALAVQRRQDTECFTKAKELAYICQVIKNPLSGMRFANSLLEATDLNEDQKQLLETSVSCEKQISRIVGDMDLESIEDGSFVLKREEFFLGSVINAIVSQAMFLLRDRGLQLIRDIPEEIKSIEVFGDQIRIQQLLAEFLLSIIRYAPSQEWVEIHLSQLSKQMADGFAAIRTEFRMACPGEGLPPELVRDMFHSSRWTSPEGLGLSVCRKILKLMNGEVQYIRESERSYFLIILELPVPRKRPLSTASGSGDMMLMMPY

These are yes or no findings as the source states them, for the method shown. Binding seen in cells or lysates may run through a third protein. Some binding calls cover weakened binding; strength is not graded here. Sequences can lack the tags named with a protein.

For assay [1], the target named is T1, RCB-HA-His (REGULATOR OF CHLOROPLAST BIOGENESIS with HA and His tags) (Arabidopsis thaliana) (UniProt F4JLC1).
T1 sequence: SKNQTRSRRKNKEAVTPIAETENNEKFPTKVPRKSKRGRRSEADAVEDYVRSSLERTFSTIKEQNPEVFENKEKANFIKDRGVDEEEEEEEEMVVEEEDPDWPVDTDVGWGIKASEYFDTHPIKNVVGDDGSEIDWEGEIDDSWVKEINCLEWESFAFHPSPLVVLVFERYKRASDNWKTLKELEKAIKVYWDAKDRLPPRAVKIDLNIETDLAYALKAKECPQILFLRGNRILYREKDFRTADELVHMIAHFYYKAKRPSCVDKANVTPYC
In words: co-IP; anti-HA affinity matrix on cleared extract of 4-d-old RCB-HA-His/rcb-10 seedlings grown in 0.5 μmol m^-2 s^-1 FR light (PHYA) or 10 μmol m^-2 s^-1 R light (PHYB); Co-IP buffer 50 mM Tris-HCl pH 7.5, 100 mM NaCl, 0.1% IGEPAL CA-630; 4 h at 4 °C; blots with anti-PHYA or anti-PHYB.

Assay [2] has as its target T2, GST-RCB (Arabidopsis thaliana) (UniProt F4JLC1).
T2 sequence: T1 sequence
In words: pull-down; GST-RCB on glutathione sepharose beads; in vitro translated PHY apoproteins (no chromophore) in E buffer with 0.1% IGEPAL CA-630, 2 h; blots with anti-PHYA or anti-PHYB; only the target purified.

Assay [3] deals with T2, GST-RCB (Arabidopsis thaliana). In words: pull-down; GST-RCB on glutathione sepharose beads; in vitro translated PHY holoproteins (with phycocyanobilin) in the Pr form; E buffer with 0.1% IGEPAL CA-630, 2 h; only the target purified.
Assay [4] shares this target. In words: pull-down; GST-RCB on glutathione sepharose beads; in vitro translated PHY holoproteins (with phycocyanobilin) in the Pfr form; E buffer with 0.1% IGEPAL CA-630, 2 h; only the target purified.

On to “PHYB (phytochrome B), endogenous (from UniProt P14713 1-1172)”, for which the binding result in assay [1] is reported as “binds”.

With “PHYB-HA apoprotein (from UniProt P14713 1-1172)”, the binding result in assay [2] is “binds”.

Take “PHYB-HA holoprotein (with phycocyanobilin) (from UniProt P14713 1-1172)”: the binding result in assay [3] and in assay [4] was “binds” in each case.

B1: PHYA (phytochrome A), endogenous (protein, UniProt P14712 1-1122)
chain: MSGSRPTQSSEGSRRSRHSARIIAQTTVDAKLHADFEESGSSFDYSTSVRVTGPVVENQPPRSDKVTTTYLHHIQKGKLIQPFGCLLALDEKTFKVIAYSENASELLTMASHAVPSVGEHPVLGIGTDIRSLFTAPSASALQKALGFGDVSLLNPILVHCRTSAKPFYAIIHRVTGSIIIDFEPVKPYEVPMTAAGALQSYKLAAKAITRLQSLPSGSMERLCDTMVQEVFELTGYDRVMAYKFHEDDHGEVVSEVTKPGLEPYLGLHYPATDIPQAARFLFMKNKVRMIVDCNAKHARVLQDEKLSFDLTLCGSTLRAPHSCHLQYMANMDSIASLVMAVVVNEEDGEGDAPDATTQPQKRKRLWGLVVCHNTTPRFVPFPLRYACEFLAQVFAIHVNKEVELDNQMVEKNILRTQTLLCDMLMRDAPLGIVSQSPNIMDLVKCDGAALLYKDKIWKLGTTPSEFHLQEIASWLCEYHMDSTGLSTDSLHDAGFPRALSLGDSVCGMAAVRISSKDMIFWFRSHTAGEVRWGGAKHDPDDRDDARRMHPRSSFKAFLEVVKTRSLPWKDYEMDAIHSLQLILRNAFKDSETTDVNTKVIYSKLNDLKIDGIQELEAVTSEMVRLIETATVPILAVDSDGLVNGWNTKIAELTGLSVDEAIGKHFLTLVEDSSVEIVKRMLENALEGTEEQNVQFEIKTHLSRADAGPISLVVNACASRDLHENVVGVCFVAHDLTGQKTVMDKFTRIEGDYKAIIQNPNPLIPPIFGTDEFGWCTEWNPAMSKLTGLKREEVIDKMLLGEVFGTQKSCCRLKNQEAFVNLGIVLNNAVTSQDPEKVSFAFFTRGGKYVECLLCVSKKLDREGVVTGVFCFLQLASHELQQALHVQRLAERTAVKRLKALAYIKRQIRNPLSGIMFTRKMIEGTELGPEQRRILQTSALCQKQLSKILDDSDLESIIEGCLDLEMKEFTLNEVLTASTSQVMMKSNGKSVRITNETGEEVMSDTLYGDSIRLQQVLADFMLMAVNFTPSGGQLTVSASLRKDQLGRSVHLANLEIRLTHTGAGIPEFLLNQMFGTEEDVSEEGLSLMVSRKLVKLMNGDVQYLRQAGKSSFIITAELAAANK
B1: in assay [1], the binding result is “binds”.

B2: PHYA-HA holoprotein (with phycocyanobilin) (protein, UniProt P14712 1-1122)
chain: B1 chain
modifications: phycocyanobilin (PCB) chromophore; residue not stated
On to B2, for which the binding result in assay [3] and in assay [4] was “binds” in each case.

B3: PHYA-HA apoprotein (protein, UniProt P14712 1-1122)
chain: B1 chain
With B3, the binding result in assay [2] was “binds”.
